PubChem BioAssay AID743454 | Peter MacCallum Cancer Centre, 2014
The whole screen tested about 18,000 reagents; below is an unselected part. 450 of them (2.5%) were called active. 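Single biological run; no consistent viability z cut-off exists, so the class columns, not z-scores, define the calls.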

Test: 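Search for knock-downs that restore vorinostat killing in resistant colon cancer cells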 (primary screen)
Cells: human HCT116-VR colon cancer cells, selected for vorinostat resistance
Reagent: siRNA pool against human genes, 40 nM siRNA pool
Duration: vorinostat for 24 h, read-out about 72 h after transfection
Challenge: vorinostat at 2.5 µM final
Detection: 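Two measures, CellTiter-Fluor viability and luminescent caspase 3/7 activity, each as fold change against same-plate mock wells, mean of duplicates, then screen-wide robust z-score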
Reading the numbers: viability robust z-score: higher = more viable cells than screen typical; caspase robust z-score: higher = more caspase 3/7 activity than screen typical
Rule for the call: 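a knock-down is a hit when classed RV1 or RV2 for lowered viability, or CA1 or CA2 for caspase activation; those lethal without drug were dropped; hits were retested singly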

| viability hit class | caspase hit class | viability robust z-score | caspase robust z-score | outcome | gene | PubChem SID |
| --- | --- | --- | --- | --- | --- | --- |
| no change | no change | -0.08 | -1 | inactive | CPM | SID152150421 |
| no change | no change | 0.46 | 2.21 | inactive | EYA2 | SID152150977 |
| no change | no change | 0.32 | -0.22 | inactive | CEP85L | SID152155123 |
| no change | no change | 1.15 | 0.3 | inactive | TRMT9B | SID152151036 |
| no change | no change | -0.36 | 1.19 | inactive | USF2 | SID134309967 |
| no change | no change | -0.06 | 1.31 | inactive | SLC60A2 | SID152154206 |
| no change | no change | -0.96 | 1.22 | inactive | RSU1 | SID135623701 |
| no change | no change | -0.76 | -0.74 | inactive | PRPF18 | SID152153577 |
| no change | no change | 0.74 | 0.34 | inactive | CNNM2 | SID152148797 |
| no change | no change | -0.26 | 1.39 | inactive | STK17A | SID152148521 |
| no change | no change | 0.93 | -0.34 | inactive | CKS2 | SID56479182 |
| no change | no change | -1.71 | 0.04 | inactive | FAM161B | SID134320297 |
| no change | no change | -1.37 | 1 | inactive | CHRND | SID134311565 |
| no change | no change | -1.31 | -0.4 | inactive | HAND2 | SID135621621 |
| no change | no change | 0.06 | 0.73 | inactive | PSMG3 | SID152149089 |
| no change | no change | 0.78 | -0.76 | inactive | AP4E1 | SID152154535 |
| no change | no change | 0.13 | -1.27 | inactive | UGT1A7 | SID134317974 |
| no change | no change | 0.16 | -0.8 | inactive | RNF175 | SID152148976 |
| no change | no change | -1.03 | 0.48 | inactive | CELF6 | SID152150511 |
| no change | no change | 1.4 | -0.63 | inactive | PUM2 | SID134318219 |
| no change | no change | 0.77 | -0.6 | inactive | DNAJA3 | SID134321703 |
| no change | no change | 2.79 | 0.79 | inactive | TRIP10 | SID152155301 |
| no change | no change | -1.34 | 0.08 | inactive | HTR7 | SID152149599 |
| no change | no change | 0.32 | -0.29 | inactive | SGPL1 | SID134313604 |
| no change | no change | -1.75 | -0.8 | inactive | RACK1 | SID152149338 |
| no change | no change | -0.7 | 2.21 | inactive | ASAH2B | SID135625537 |
| no change | no change | -0.93 | -0.49 | inactive | PPEF2 | SID134316534 |
| no change | no change | 0.64 | 1.31 | inactive | CYP4A11 | SID152153617 |
| no change | no change | -0.24 | -0.7 | inactive | GPX3 | SID152154632 |
| no change | no change | -1.13 | 0.67 | inactive | MRFAP1L1 | SID134320017 |
| no change | no change | 0.38 | 1.37 | inactive | GIT1 | SID152152159 |
| no change | no change | 0.99 | 0.08 | inactive | CLMN | SID135623283 |
| no change | no change | 0.06 | 0.57 | inactive | C11orf40 | SID134319892 |
| no change | no change | -0.81 | 1.36 | inactive | ZGRF1 | SID134326801 |
| no change | no change | 1.09 | 0.43 | inactive | ZGRF1 | SID152150288 |
| no change | no change | 0.98 | -0.63 | inactive | ALDH6A1 | SID134310246 |
| no change | no change | -0.49 | 0.04 | inactive | CACNB1 | SID135621756 |
| no change | no change | -1.49 | 2.48 | inactive | PALB2 | SID152152901 |
| no change | no change | 0.3 | 0.62 | inactive | TMX3 | SID152154433 |
| no change | no change | -0.47 | -0.68 | inactive | SLC6A5 | SID135621418 |
| no change | CA2 (caspase activation) | -3.39 | 6.05 | active | PFKL | SID56479167 |
| no change | no change | -1.39 | 2.79 | inactive | USP40 | SID152147294 |
| no change | no change | -1.03 | 1.66 | inactive | SLC38A1 | SID135621407 |
| no change | no change | -1.88 | 2.67 | inactive | COL17A1 | SID152148528 |
| no change | no change | -0.57 | -0.64 | inactive | TNS1 | SID135621870 |
| no change | no change | -0.27 | -0.75 | inactive | TM6SF2 | SID152151821 |
| no change | no change | -0.1 | -0.93 | inactive | CRY1 | SID134319465 |
| no change | no change | 1.07 | -0.78 | inactive | OR51B2 | SID135621711 |
| no change | no change | -0.07 | -0.48 | inactive | KDM1A | SID152149936 |
| no change | no change | 0.26 | -0.1 | inactive | CNKSR2 | SID134324135 |
| no change | no change | 1.5 | 0.44 | inactive | PDGFD | SID152148479 |
| no change | no change | -0.4 | -0.77 | inactive | NPPC | SID134316995 |
| no change | no change | 1 | -0.51 | inactive | ATP1A2 | SID134311531 |
| no change | no change | 0.28 | -0.75 | inactive | TMEM101 | SID135622838 |
| no change | no change | -1.08 | 0.16 | inactive | CTAG1B | SID134310403 |
| no change | no change | -1.21 | 0.24 | inactive | TNNT3 | SID135623834 |
| no change | no change | 0.96 | -0.4 | inactive | AFF3 | SID152150999 |
| no change | no change | 0.64 | -0.9 | inactive | ARL6IP1 | SID134310395 |
| no change | no change | -0.66 | -1.15 | inactive | KIAA2012 | SID152147286 |
| no change | no change | 1.5 | -0.1 | inactive | LONRF1 | SID152153192 |
| no change | no change | 0.1 | -0.09 | inactive | IGFL1 | SID134326848 |
| no change | no change | 0.2 | 0.92 | inactive | OR4Q3 | SID134329989 |
| no change | no change | 0.21 | 0.95 | inactive | YY1 | SID135622199 |
| no change | no change | 0.36 | 0.3 | inactive | EI24 | SID135623862 |
| no change | no change | -1.27 | 0.77 | inactive | SLFNL1 | SID134320941 |
| no change | no change | -0.26 | 0.08 | inactive | MEA1 | SID152151430 |
| no change | no change | 0.12 | 0.18 | inactive | H3-5 | SID135625308 |
| no change | no change | -0.86 | -0.48 | inactive | LCE1E | SID134322843 |
| no change | no change | 1.29 | -0.73 | inactive | LRRC7 | SID135622662 |
| no change | no change | -0.1 | 4.52 | inactive | CILP | SID152156131 |
| no change | no change | -1.08 | 1.36 | inactive | RMP64 | SID152152155 |
| no change | no change | -0.75 | 1.52 | inactive | POFUT3 | SID134313772 |
| no change | no change | 0.33 | 0.56 | inactive | KRT83 | SID134315662 |
